Data as given in PubChem BioAssay AID504744 (Drosophila RNAi Screening Center, 2011)
Purpose: 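Find genes whose loss alters insulin-driven dAkt phosphorylation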 (primary screen). Cell system: Drosophila Kc167 cells. Reagents: long dsRNA against Drosophila genes, 250 ng dsRNA per well of a 384-well plate. Timing: 3 days of knock-down, then overnight serum-free starvation before stimulation. Challenge: bovine insulin at 387 nM for 10 minutes after 12 h without serum. Measured: 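In-cell antibody fluorescence for phospho-dAkt in each well over DNA-dye signal, with log2 residuals expressed as z-scores adjusted for cell count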. Call rule: 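Hit in the insulin screen when the two-replicate mean z-score is more extreme than plus or minus 2.5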.
In all, the deposit lists about 23,000 reagents; this is a random part of those that have a named target and a result. Of all reagents, 98 (0.43%) got an active call. 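Only hit calls are given; the phospho-dAkt signals, z-scores and hit direction were not deposited.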 Names joined by + are all predicted targets of the reagent. No sequences are given here.

target	amplicon	activity call
HnRNP-K	DRSC07585	inactive
HnRNP-K	DRSC22734	inactive
CG12158	DRSC22933	inactive
tub	DRSC12389	inactive
tub	DRSC22800	inactive
Nup37	DRSC14419	inactive
Dys	DRSC13360	inactive
Dys	DRSC13364	inactive
Dys	DRSC15260	inactive
Dys	DRSC16218	inactive
Dys	DRSC16219	inactive
Dys	DRSC16220	inactive
Dys	DRSC16935	inactive
CG16723	DRSC15138	inactive
Slc25A46a	DRSC20125	inactive
SMC3	DRSC20227	inactive
CG31974	DRSC00522	inactive
Tsp66E	DRSC09683	inactive
AANATL2	DRSC03227	active
Tep1	DRSC03450	inactive
ND-20	DRSC20164	inactive
Rpi	DRSC04583	inactive
CG7631	DRSC01873	inactive
CG42342	DRSC13165	inactive
CG42342	DRSC14378	inactive
CG42342	DRSC15010	inactive
CG42342	DRSC15011	inactive
CG42342	DRSC15012	inactive
CG42342	DRSC21791	inactive
CG42342	DRSC22861	inactive
CG15021	DRSC08475	inactive
Arp1	DRSC14118	inactive
CG10969	DRSC09811	inactive
Damm	DRSC07393	inactive
CheB98a	DRSC14882	inactive
CG42539 (retired record)	DRSC13691	inactive
CG42539 (retired record)	DRSC21639	inactive
ste24c + CG30461	DRSC05639	inactive
ste24c + CG30461	DRSC07316	inactive
Naglu	DRSC02267	inactive
ValRS	DRSC06864	inactive
Lsd-2	DRSC20143	inactive
CG30471	DRSC07096	inactive
Fib	DRSC04614	inactive
CG32248	DRSC08102	inactive
CG14357	DRSC14820	inactive
CG14410	DRSC19596	inactive
CG3288	DRSC11745	inactive
heph	DRSC14082	inactive
heph	DRSC14085	inactive
heph	DRSC15436	inactive
heph	DRSC16783	inactive
CG14937	DRSC02419	inactive
CG34001	DRSC09042	inactive
fray	DRSC16950	inactive
Ent1	DRSC00330	inactive
CG2200	DRSC19840	inactive
NijA	DRSC10637	inactive
mRpL47	DRSC16827	inactive
CG31710	DRSC01089	inactive
CG31710	DRSC22863	inactive
CG14644	DRSC12230	inactive
S6kII	DRSC20645	inactive
kl-2	DRSC21136	inactive
Patr-1	DRSC14159	inactive
l(3)mbt	DRSC16983	inactive
CG15605	DRSC06558	inactive
out	DRSC19347	inactive
dnt	DRSC03522	inactive
Or10a	DRSC20264	inactive
Hs6st	DRSC14348	inactive
Hs6st	DRSC15182	inactive
Hs6st	DRSC15581	inactive
Hs6st	DRSC21732	inactive
CG33012	DRSC06287	inactive
CG33012	DRSC06288	inactive
CG4017	DRSC02733	inactive
CG14237	DRSC14731	inactive
CG13994	DRSC02326	inactive
CG32834	DRSC21929	inactive
CG17672	DRSC09230	inactive
CG17672	DRSC10278	inactive
sle	DRSC14557	inactive
CG12835 (retired record)	DRSC06181	inactive
CG6791	DRSC16118	inactive
MCTS1	DRSC18393	inactive
Cox10	DRSC02804	inactive
Ca-alpha1D	DRSC03284	inactive
CG43689	DRSC18383	inactive
CG43689	DRSC22467	inactive
wus	DRSC20278	inactive
ppk13	DRSC02382	inactive
CG43367 + CG32252 (retired record)	DRSC21715	inactive
scny	DRSC10509	inactive
scny	DRSC10510	inactive
CG13800 (retired record)	DRSC08334	inactive
Tsp86D	DRSC15607	inactive
Obp56b	DRSC06551	inactive
CG10996	DRSC19363	inactive
ais	DRSC10523	inactive
CG6769	DRSC20006	inactive
Afg3l2	DRSC10657	inactive
egr	DRSC06233	inactive
mesh	DRSC14472	inactive
mesh	DRSC15098	inactive
mesh	DRSC15099	inactive
CG15725	DRSC19691	inactive
CG15517	DRSC15056	inactive
Ndae1	DRSC00975	inactive
Ndae1	DRSC02770	inactive
CG3407	DRSC00603	inactive
CG3919	DRSC10389	inactive
t-cup	DRSC01254	inactive
Mvk + CG33672 + spt4	DRSC05356	inactive
Mvk + CG33672 + spt4	DRSC06628	inactive
Cyp6a2	DRSC05014	inactive
CG10232	DRSC14218	inactive
Rca1	DRSC03407	inactive
CG12640	DRSC17847	inactive
CG9287	DRSC03186	inactive
CG9287	DRSC22790	inactive
CBP	DRSC17746	inactive
CG10700	DRSC02096	inactive
ko	DRSC11893	inactive
Vajk3	DRSC01883	inactive
CG12951	DRSC14579	inactive
Brd	DRSC09685	inactive
KCNQ	DRSC06121	inactive
KCNQ	DRSC06230	inactive
PpD3	DRSC16796	inactive
CG30259	DRSC04164	inactive
CG30259	DRSC04165	inactive
CG5877	DRSC19963	inactive
fos28F (retired record)	DRSC03391	inactive
CG4983	DRSC02799	inactive
Cdlc2	DRSC00743	inactive
CG12106	DRSC17805	inactive
CG42594	DRSC18053	inactive
CG42594	DRSC18408	inactive
Cyp6a20	DRSC07380	inactive
ocm	DRSC04360	inactive
Obp99a	DRSC15303	inactive
Dlg5	DRSC02964	inactive
clos	DRSC06240	inactive
clos	DRSC06241	inactive
clos	DRSC06778	inactive
clos	DRSC21857	inactive
clos	DRSC22942	inactive
mil	DRSC15696	inactive
CG2187	DRSC15425	inactive
Lim1	DRSC17752	inactive
Lim1	DRSC18677	inactive
GlyRS	DRSC10711	inactive
RhoGEF64C	DRSC08318	inactive
RhoGEF64C	DRSC08319	inactive
CG11600	DRSC14332	inactive
OtopLc	DRSC18082	inactive
OtopLc	DRSC18083	inactive
OtopLc	DRSC18132	inactive
RpL22	DRSC18707	inactive
RpL22	DRSC22819	inactive
Prim1	DRSC11137	inactive
Gr77a	DRSC11446	inactive
Xpc	DRSC07654	inactive
Stat92E	DRSC16870	inactive
CG1503	DRSC20512	inactive
ppk	DRSC03595	inactive
Cyp40	DRSC10980	inactive
Su(var)3-7	DRSC16872	inactive
CG30291	DRSC03842	inactive
und	DRSC03629	inactive
Cpr67B	DRSC10373	inactive
Rab3-GAP	DRSC02001	inactive
CG5011	DRSC00039	inactive
CG5011	DRSC00674	inactive
antr	DRSC22392	inactive
OS9	DRSC02700	inactive
CG13978	DRSC14720	inactive
CG9143	DRSC07338	inactive
prt	DRSC16894	inactive
CG9691	DRSC18441	inactive
SA2	DRSC08385	inactive
CG30419	DRSC04208	inactive
CG30419	DRSC04209	inactive
CG30419	DRSC22519	inactive
gt	DRSC18782	inactive
hfp	DRSC08731	inactive
hfp	DRSC08732	inactive
hfp	DRSC22408	inactive
CG7130	DRSC11797	inactive
CG13833	DRSC14683	inactive
CG32299 + CG32298	DRSC07980	inactive
CG32299 + CG32298	DRSC22354	inactive
CG1024	DRSC12496	inactive
CG5644	DRSC10531	inactive
BicD	DRSC02006	inactive
Cda5	DRSC00003	inactive
Cda5	DRSC00529	inactive
Cda5	DRSC00532	inactive
Cda5	DRSC21330	inactive
